# Tags and fusion partners may be left off the protein sequences shown.
# Target: T1, RepA (ORF3) (Moraxella bovis ATCC 10900 (plasmid pMbo4.6)) (UniProt D0V0D3)
# T1 sequence (looked up): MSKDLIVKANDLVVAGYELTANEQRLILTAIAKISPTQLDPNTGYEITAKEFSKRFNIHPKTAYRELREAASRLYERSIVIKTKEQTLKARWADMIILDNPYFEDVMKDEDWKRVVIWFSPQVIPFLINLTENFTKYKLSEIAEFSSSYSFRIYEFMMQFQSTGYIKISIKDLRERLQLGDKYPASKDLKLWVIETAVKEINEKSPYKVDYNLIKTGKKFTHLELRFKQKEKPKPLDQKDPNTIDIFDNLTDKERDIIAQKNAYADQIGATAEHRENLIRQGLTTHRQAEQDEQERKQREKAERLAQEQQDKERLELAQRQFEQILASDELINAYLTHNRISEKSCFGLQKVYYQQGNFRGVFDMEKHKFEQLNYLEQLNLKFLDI
# Experiment: EMSA
# Conditions: 50-800 ng RepA, 90 ng DNA; 10 mM Tris-HCl pH 7.5, 10 mM MgCl2, 100 mM NaCl, 0.2 mM DTT, 5% glycerol, 30 ul, 22 C 20 min; 6% PAGE 0.4x TBE at 4 C; recombinant protein; residues 1-386; probe letters rebuilt from the primers and the genome
sequence,measurement,value
AAGAATTCGGGCGTGGTTTTGGGGATTGATTTTGTTTTGTCTTTTTAGCTAAAAAAACAAGAAAATTAACAAGAAAAAGAGCCAAAACCGAGTGCTTTTTCGGTTTTGGCGTTTTTTTATTTTTTTAATATATTTTTAATAGTTTTTAGACCCCCTGCAAAGCCTTATGTATCAAAGGTTTGCGAGACCTAACTAGGAGGGATTGACTACCAAATAGGAGGGATTGACTACTCAAATAGGAGGGATTGACTACTCAAATAGGAGGGATTGACTACCAAATAGGAGTATTTACAATAACTCTTTTTAGGTGTATAATTAATTACTCCTTTTTTGCTAATGAGACCTAAAAATGAGCAAAGATTTAATTGTAGGATCCAA (double strand) [orirep35],binding result,binds

# — paper PMC3557383
